Laboratory results: PubChem BioAssay AID686937 (Drosophila RNAi Screening Center, 2013)
The screen tested about 23,000 reagents; below is a random part of those that have a named target and a result. 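Reduced-secretion tags in replicate 1 do not always agree with the z-scores; no criterion for assigning the tags was given.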 The numbers tell different reagents against one gene apart. Names joined by + are all predicted targets of the reagent. No sequences are given here. Not stated in the record: the amount of reagent.

Screen: 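Genes whose loss weakens secretory pathway function in fly cells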 (primary screen)
Cells: Drosophila S2 cells expressing secreted horseradish peroxidase
Knock-down reagent: long dsRNA against Drosophila genes
Timing: about 5.5 days (5 days dsRNA, then 12 h reporter induction)
Challenge: reporter expression induced after 5 days of dsRNA, read 12 h later; inducer not stated
Measurement: 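Chemiluminescent measurement of peroxidase in the medium 12 h after reporter induction, following 5 days of dsRNA, given as a z-score per plate; higher means more secretion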
Direction: z-score: higher = more reporter secreted into medium

target gene	reagent	z-score, replicate 1	z-score, replicate 2	z-score, replicate 3	z-score, replicate 4	phenotype, replicate 1
mRpS26	1	0.32	0.16			
Fum4	1	0.23	-0.04			
Cdc5	1	0.16	0.34			
gw	1	-2.24	-3.01			reduced secretion
gw	2	-1.78	-1.31			reduced secretion
alpha-Cat	1	0.3	0.36	0.31	-0.32	
CG16743	1	-0.29	0.04			
CG4440	1	-0.24	0.05			
CG34330	1	0.49	0.47			
fw	1	0.39	0.31			
CG5382	1	-0.05	-0.11			
CG13315	1	0.31	-0.2			
morgue	1	0.39	0.44			
Spase22-23	1	-1.4	-0.74			
bel	1	-0.82	-0.96			
CG18449	1	0.32	-0.04			
PGRP-LB	1	0.15	0.31			
CG14285	1	0.48	0.46			
Prosbeta2R2	1	0.29	0.47			
Rpn13	1	-0.13	-0.37			
CG11906	1	0.49	0.26			
Pect	1	0.28	0.2			
Pect	2	-1.22	-1.34			
CG11608	1	0.22	0.46			
bsk	1	0.51	0.33			
Gyc76C + CG42637	1	0.53	0.39			
CG14187	1	0.31	0.49			
CG34188	1	0.32	0.16			
CG14883	1	-0.6	-0.29			
CG30275	1	0.28	0.23			
Zasp52	1	-2.11	-0.77			reduced secretion
Zasp52	2	0.27	-0.03			
Hex-t1	1	0.07	0.14			
CG14644	1	0.21	0.15			
CG14903	1	0.15	0.06			
CG12862	1	0.26	0.08			
Mvl	1	0.29	0.39			
nero	1	0.09	-0.04			
caly	1	0.57	0.48			
Vdup1	1	0.51	0.12			
Cyp313a2	1	0.41	0.17			
Arl8	1	-0.08	0.28			
Ir94f	1	0.37	0.31			
CG1503	1	0.3	0.26			
coil	1	0.33	0.26			
Obp50e	1	-0.12	-0.05			
nompB	1	0.1	0.19			
nompB	2	0.1	0.33	-0.33	-0.13	
CG13377	1	0.25	0.2			
lectin-21Cb	1	0.5	0.25			
fd96Cb	1	0.22	0.12			
CG34199	1	0.14	0.17			
h-cup	1	0	0.15			
mRpL28	1	-0.45	-0.41			
CG15445	1	-0.09	-0.13			
CG11710	1	0.4	0.19			
mnb	1	-0.94	-1.79			
mnb	2	0.11	0.21			
Arc2	1	-0.08	-0.07			
p38c	1	-0.44	-0.27			
CG15056	1	-0.03	0.42			
Zip88E	1	0.47	0.44			
CG13101	1	0.43	0.37			
mtrm	1	-0.15	-0.28			
CG32554	1	-1.02	-0.3			
asun	1	0.37	0.34			
CG14974	1	-0.02	-0.06			
CG14095	1	0.2	0.44			
CG11191	1	0.18	0.12			
COX6B	1	-0.08	-0.63			
ham	1	0.5	0.08			
ham	2	0.01	0.25			
ham	3	0.24	0.28	-0.04	-0.28	
ham	4	0.07	0.26			
CG4497	1	-0.32	0.13			
Cf2	1	-4.47	-1.86			reduced secretion
CG40198	1	-0.41	-0.15			
CG9776	1	0.54	0.39			
Dhc1	1	0.44	-1.01			
Dhc1	2	0.27	0.31			
CG10747	1	0.28	0.28			
CG4597	1	0.22	0.33			
CG17237	1	0.06	0.32			
TwdlK	1	-0.09	-1.49			
TBC1D5	1	0.4	0.4			
CG1368	1	0.49	0.44			
CG42372 + CG30100	1	0.57	0.54			
ProtB	1	0.38	0.19			
CG10970	1	0.49	0.29			
CG13840	1	0.76	0.56			
mthl4	1	0.56	0.26			
Lamp1	1	-0.32	0.04			
eIF2Bbeta	1	-0.05	-1.22			
CG1513	1	-0.17				
CG1513	2	0.81	0.68			
CG1513	3	0.32	0.25			
CG34354	1	0.41	0.14			
CG34354	2	-2.99	-2.54			reduced secretion
CG34354	3	-3.93	-3.45			reduced secretion
CG34354	4	0.3	0.27			
CG7196 (retired record)	1	0.17	0.2			
CG7196 (retired record)	2	0.36	0.27			
Pdi	1	0.36	0.25			
CG31663	1	0.61	-0.06			
CG31663	2	-0.09	0.27			
CG31663	3	0.7	0.6			
CG31663	4	0.19	0.19			
